In publication PMC7862700:
The other results are listed elsewhere or left out. Construct or isoform of the protein are uncertain.

target: T1, ELF2 (UniProt Q15723); test: DAPPL (digital affinity profiling via proximity ligation, sequencing); settings: 10 mM Tris-HCl pH 7.5, 50 mM NaCl, 1 mM DTT, 4% glycerol, room temperature, 30 min; GST-TFs on glutathione beads, 16-mer random dsDNA library, 0.1% …; high values mean tight binding; double strand, one strand shown; scale: fold enrichment (6-mer frequency, TF over GST control)
T1 sequence: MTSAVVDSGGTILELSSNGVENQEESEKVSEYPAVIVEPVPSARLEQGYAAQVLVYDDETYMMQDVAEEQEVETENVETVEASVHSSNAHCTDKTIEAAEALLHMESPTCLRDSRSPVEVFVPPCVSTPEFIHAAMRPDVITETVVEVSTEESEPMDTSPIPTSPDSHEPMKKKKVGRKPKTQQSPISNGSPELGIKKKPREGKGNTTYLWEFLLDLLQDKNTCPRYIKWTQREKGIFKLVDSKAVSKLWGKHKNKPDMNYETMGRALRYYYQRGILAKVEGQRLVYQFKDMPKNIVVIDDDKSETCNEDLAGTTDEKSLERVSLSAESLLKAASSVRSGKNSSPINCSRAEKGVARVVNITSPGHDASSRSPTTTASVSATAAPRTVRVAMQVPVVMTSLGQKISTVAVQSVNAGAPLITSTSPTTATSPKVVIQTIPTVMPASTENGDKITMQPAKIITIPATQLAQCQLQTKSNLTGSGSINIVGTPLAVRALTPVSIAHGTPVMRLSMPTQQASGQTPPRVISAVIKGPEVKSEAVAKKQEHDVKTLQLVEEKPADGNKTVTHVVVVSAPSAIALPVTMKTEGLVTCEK

Row | Sequence | binding signal
1 | GAATTC | 1.45
2 | CCTGGA | 1.53
3 | TCTACG | 1.34
4 | ACAGAT | 0.994
5 | TGTTCT | 1.27
6 | CTTTCC | 2.21
7 | CTTCGG | 1.38
8 | TATTAA | 1.14
9 | TACCAC | 1.2
10 | CGATCC | 1.2
11 | CGGCTT | 1.19
12 | CATCTT | 1.14
13 | CTCGTA | 1.28
14 | ATAGCT | 1.07
15 | TCCCCA | 1.32
16 | AAATGG | 1.54
17 | ATTATG | 1.14
18 | TTAGCG | 1
19 | CAAATT | 1.16
20 | CTACTC | 1.29

Row | Sequence | binding signal
21 | GTATAT | 1.18
22 | GCACTT | 2.1
23 | GCTTCA | 1.22
24 | CGATAC | 1.14
25 | TGGAAA | 1.06
26 | ATCTCT | 1.23
27 | TTTGAA | 1.16
28 | AACACA | 1.33
29 | TCTTGA | 1.14
30 | TTCCTC | 2.45
31 | ACTTAA | 1.14
32 | CCTGAT | 1.48
33 | CAATCC | 1.18
34 | ATCTTT | 1.18
35 | AACGAC | 1.1
36 | TTTTTA | 1.3
37 | TAAAGT | 1.11
38 | CCTAAA | 1.27
39 | AAATTC | 1.35

Looked up above.
binding signal with CAATCC reads 1.18
binding signal with ATAGCT reads 1.07
